In paper PMC12735921, “Evaluation of Antiproliferative Activity and Molecular Modeling Studies of Some Novel Benzimidazolone-Bridged Hybrid Compounds” (Pharmaceuticals, 2025):
Several values for one entry are separate records, joined by “and”; a condition that tells them apart may be missing. Identical values can stand only once.

Tested on: A549, MCF-7, and HeLa cells
Test: MTT cell viability assay, ranges stated across the cancer cell lines
Assay type: cell-based, human
Details: range or bound over A549, MCF-7, HeLa; HEK 293 as reference
Procedure: Cell viability assay was performed on the human lung cancer (A549) (ATCC CCL-185), human breast cancer (MCF-7) (ATCC-HTB-22), cervical cancer (HeLa) (ATCC-CCL-2), and human embryonic kidney 293 (HEK293) (ATCC-CRL-1573) cell lines, which were purchased from Deutsche Sammlung von Mikroorganismen und Zellkulturen (DSMZ, Braunschweig, Germany). The cells were maintained in Dulbecco’s modified Eagle’s medium (DMEM), supplemented with 10% fetal bovine serum (FBS), 2 mM L-glutamine, 100 U/mL penicillin, and 100 mg/L streptomycin (Biochrom AG, Berlin, Germany) at 37 °C in a humidified atmosphere of 5% CO2.
The cytotoxic effect was determined by the MTT (3-(4,5-dimethyl-2-thiazolyl)-2,5-diphenyl-2H-tetrazolium bromide) cell viability assay. Cells were seeded at an initial concentration of 1 × 10^5 cells/mL in 96-well microplates. Cells were then treated with different concentrations (0.5, 5, 10, 25, 50, 100 and 200 µM) of the novel synthesized compounds for 48 h. After the incubation period, the formed formazan crystals were dissolved in dimethyl sulfoxide (DMSO), and the optical density (OD) of the compounds was measured at 570 nm using a spectrophotometer (BMG Labtech, Ortenberg, Germany). Cytotoxicity was expressed as an increase in the mean percentage of cytotoxicity relative to the unexposed control ± standard deviation (SD). […] Control values were set at 0% cytotoxicity. IC50 was calculated by fitting the data to a sigmoidal curve using a four-parameter logistic model and was presented as an average of three independent measurements. […] Doxorubicin was used as a positive control. Each sample was tested in triplicate.
To evaluate the selectivity of the tested compound(s) toward cancer cells over normal cells, the Selectivity Index (SI) was calculated using the following formula:SI = IC50 (normal cells)/IC50 (cancer cells)
An SI value greater than 2 was considered to indicate selective cytotoxicity, while values below 2 were interpreted as non-selective. Higher SI values reflect greater therapeutic potential due to reduced toxicity toward normal cells.

Row | SMILES | SI values across the tested cancer cell lines
1 | O=C(Cn1c(=O)n(CC(=O)c2ccccc2)c2cc(Cl)c(Cl)cc21)c1ccccc1 [Compound 8, 5,6-Dichloro-1,3-bis(2-oxo-2-phenylethyl)-1,3-dihydro-2H-benzimidazol-2-one] | 0.73–0.91
2 | O=c1n(CN2CCN(c3ccc(Cl)cc3)CC2)c2cc(Cl)c(Cl)cc2n1CN1CCN(c2ccc(Cl)cc2)CC1 [Compound 9, 5,6-Dichloro-1,3-bis((4-(4-chlorophenyl)piperazin-1-yl)methyl)-1H-benzo[d]imidazol-2(3H)-one] | 1.35–1.78 and < 2
3 | O=C(O)Cn1c(=O)n(CC(=O)O)c2cc(Cl)c(Cl)cc21 [Compound 6, 2,2′-(5,6-Dichloro-2-oxo-1H-benzo[d]imidazole-1,3(2H)-diyl)diacetic Acid] | ≥ 2.0
4 | CCN(CC)c1ccc2cc(C(=O)NNC(=O)Cn3c(=O)n(CC(=O)NNC(=O)c4cc5ccc(N(CC)CC)cc5oc4=O)c4cc(Cl)c(Cl)cc43)c(=O)oc2c1 [Compound 12f] | 1.49 to 1.84
